Reference: article doi:10.1101/2024.10.25.620210

B1: PAP3 of Arabidopsis thaliana (protein, UniProt F4JF21 41-668)
chain: GFSSDEFPVDETFLEKFGPKDKDTEDEARRRNWIERGWAPWEEILTPEADFARKSLNEGEEVPLQSPEAIEAFKMLRPSYRKKKIKEMGITEDEWYAKQFEIRGDKPPPLETSWAGPMVLRQIPPRDWPPRGWEVDRKELEFIREAHKLMAERVWLEDLDKDLRVGEDATVDKMCLERFKVFLKQYKEWVEDNKDRLEEESYKLDQDFYPGRRKRGKDYEDGMYELPFYYPGMVCEGTVTTLHLYQGAFVDIGGVHEGWVPIKGNDWFWIRHFIKVGMHVIVEITAKRDPYRFRFPLELRFVHPNIDHMIFNKFDFPPIFHRDGDTNPDEIRRDCGRPPEPRKDPGSKPEEEGLLSDHPYVDKLWQIHVAEQMILGDYEANPAKYEGKKLSELSDDEDFDEQKDIEYGEAYYKKTKLPKVILKTSVKELDLEAALTERQHHNKLMMEAKARGEGYKIDKLRRNIEMDEYDFLHWRRSLEEREALLRDISSRQALGLPLEEPGRYKPGSFFGKDQYDPTSALYQYDYWGEPKNSEISKQERMKDAHNKSIVGKGNVWYDMSYDDAIKQTIEKRKEGSTLASQEEETESEEEEEDDDDFDDFDYSILSDESSIGYSEQQPLVNGTQVLTD
B2: PAP2 of Arabidopsis thaliana (protein, UniProt Q9S7Q2 67-862)
chain: VEKGKYSYDVESLINKLSSLPPRGSIARCLDIFKNKLSLNDFALVFKEFAGRGDWQRSLRLFKYMQRQIWCKPNEHIYTIMISLLGREGLLDKCLEVFDEMPSQGVSRSVFSYTALINAYGRNGRYETSLELLDRMKNEKISPSILTYNTVINACARGGLDWEGLLGLFAEMRHEGIQPDIVTYNTLLSACAIRGLGDEAEMVFRTMNDGGIVPDLTTYSHLVETFGKLRRLEKVCDLLGEMASGGSLPDITSYNVLLEAYAKSGSIKEAMGVFHQMQAAGCTPNANTYSVLLNLFGQSGRYDDVRQLFLEMKSSNTDPDAATYNILIEVFGEGGYFKEVVTLFHDMVEENIEPDMETYEGIIFACGKGGLHEDARKILQYMTANDIVPSSKAYTGVIEAFGQAALYEEALVAFNTMHEVGSNPSIETFHSLLYSFARGGLVKESEAILSRLVDSGIPRNRDTFNAQIEAYKQGGKFEEAVKTYVDMEKSRCDPDERTLEAVLSVYSFARLVDECREQFEEMKASDILPSIMCYCMMLAVYGKTERWDDVNELLEEMLSNRVSNIHQVIGQMIKGDYDDDSNWQIVEYVLDKLNSEGCGLGIRFYNALLDALWWLGQKERAARVLNEATKRGLFPELFRKNKLVWSVDVHRMSEGGMYTALSVWLNDINDMLLKGDLPQLAVVVSVRGQLEKSSAARESPIAKAAFSFLQDHVSSSFSFTGWNGGRIMCQRSQLKQLLSTKEPTSEESENKNLVALANSPIFAAGTRASTSSDTNHSGNPTQRRTRTKKELAGSTA
B3: PEP core subunit β″ of Arabidopsis thaliana (protein, UniProt P56764 1-1376)
chain: MAERANLVFHNKVIDGTAIKRLISRLIDHFGMAYTSHILDQVKTLGFQQATATSISLGIDDLLTIPSKGWLVQDAEQQSWILEKHHHYGNVHAVEKLRQSIEIWYATSEYLRQEMNPNFRMTDPFNPVHMMSFSGARGNASQVHQLVGMRGLMSDPQGQMIDLPIQSNLREGLSLTEYIISCYGARKGVVDTAVRTSDAGYLTRRLVEVVQHIVVRRTDCGTIRGISVSPRNKNRMMSERIFIQTLIGRVLADDIYIGSRCVAFRNQDLGIGLVNRLITFGTQSISIRTPFTCRSTSWICRLCYGRSPTHGDLVELGEAVGIIAGQSIGEPGTQLTLRTFHTGGVFTGGTAEHVRAPYNGKIKFNEDLVHPTRTRHGHPAFLCYIDLSVIIESEDIIHSVTIPPKSFLLVQNDQYVESEQVIAEIREGTYTFHFKERVRKYIYSDSEGEMHWSTDVSHAPEFTYSNVHLLPKTSHLWILSGGSCGSSLIRFSIHKDQDQMNIPFLSAERKSISSLSVNNDQVSQKFFSSDFADPKKLGIYDYSELNGNLGTSHYNLIYSAIFHENSDLLAKRRRNRFLIPFQSIQEQEKEFIPQSGISVEIPINGIFRRNSIFAFFDDPRYRRKSSGILKYGTLKADSIIQKEDMIEYRGVQKIKTKYEMKVDRFFFIPEEVHILPESSAIMVQNYSIIGVDTRLTLNIRSQVGGLIRVEKKKKRIELKIFSGDIHFPDKTDKISRHSGILIPPGRGKKNSKESKKFKNWIYVQRITPTKKKFFVLVRPVATYEIADSINLATLFPQDLFREKDNIQLRVFNYILYGNGKPTRGISDTSIQLVRTCLVLNWDKNSSLEEVRAFFVEVSTKGLIQDFIRIGLVKSHISYIRKRNNSPDSGLISADHMNPFYSISPKSGILQQSLRQNHGTIRMFLNRNKESQSLLILSSSNCFRMGPFNHVKHHNVINQSIKKNTLITIKNSSGPLGTATPISNFYSFLPLLTYNQISLIKYFQLDNLKYIFQKINSYLIDENGIILNLDPYSNVVLNPFKLNWYFLHQNYHHNYCEETSTIISLGQFFCENVCIAKKEPHLKSGQVLIVQRDSAVIRSAKPYLATPGAKVHGHYSEILYEGDTLVTFIYEKSRSGDITQGLPKVEQVLEVRSIDSISLNLEKRIKGWNKCITRILGIPWGFLIGAELTIVQSRISLVNKIQKVYRSQGVQIHNRHIEIIVRQITSKVLVSEEGMSNVFLPGELIGLLRAERTGRALEEAICYRAVLLGITRASLNTQSFISEASFQETARVLAKAALRGRIDWLKGLKENVVLGGVIPAGTGFNKGLVHCSRQHTNIILEKKTKNLALFEGDMRDILFYHREFCDSSISKSDFSRI
B4: PAP5 of Arabidopsis thaliana (protein, UniProt F4IHY7 31-527)
chain: VKCGFPLKTLHAGITSRDRSLRHCIKCKKEDGDGDVSEGSKKSEEGFEYVTVERHPYHSYMDSTSGKLEPASGARASIPGEDYWPEGTSSRVRAARAPQPAGESSSFPSYGKNPGSRRKKNRKATEENVTVETNDEVSDSEDSSEEEENDSSDGFVTYKNEFEREEEETGFELDKKLGRPHPFIDPTKKKQIEKTLTSDESWWNWRKPEKEQWSRWQRRRPDVETVFLKAMAETGQVKLYGEEPTLTETSLYRARRHLFKEERLQAERERLAKEGPMAFYSEWVKAWKRDTSREAVQKHFEETGEDENTQLIEMFSHQTDREYRIMMGTDIRIKRDPLAMRMREDQIKQIWGGDPVYPTINYIQDPNAVMDFRGPDFHEPTPNMLSYLKENGKVISREMHEALLTKEKTEQLEVPDMDDAMAQAVDIGENDDDEDDADVEKDDEKVPRNWSVLKETPELRTAKPKPKKEGRMSLDEAVDDAENLTDFLMDFEEETDP
B5: PAP4 of Arabidopsis thaliana (protein, UniProt Q9FMX0 42-263)
chain: GGLKVEAYYGLKTPPYPLDALEPYMSRRTLEVHWGKHHRGYVDNLNKQLGKDDRLYGYTMEELIKATYNNGNPLPEFNNAAQVYNHDFFWESMQPGGGDTPQKGVLEQIDKDFGSFTNFREKFTNAALTQFGSGWVWLVLKREERRLEVVKTSNAINPLVWDDIPIICVDVWEHSYYLDYKNDRAKYINTFLNHLVSWNAAMSRMARAEAFVNLGEPNIPIA
B6: PAP6 of Arabidopsis thaliana (protein, UniProt Q9M394 39-471)
chain: ASINGSGITNGAAAETTSKPSRKGRKKKQTSTVIEKDNTETDPELNPELADYDDGIEFPYDDPPLVCCFGAVQKEFVPVVRVHDNPMHPDMYSQWKMLQWDPPEFGRAPGGPPSNVAISHVRLGGRAAFMGKVGEDDFGDELVLMMNQERVQTRAVKFDENSKTACTRVKIKFKDGKMMAETVKEPPEDSLFASELNLAVLKEARIFHFNSEVLTSPTMQSTLFTAIQWSKKFGGLIFFDLNLPLPLWRSRNETRKLIKKAWNEANIIEVSQQELEFLLDEDYYERRRNYTPQYFAEDFDQTKNRRDYYHYTPEEIKSLWHDKLKLLVVTDGTLRLHYYTPTFDGVVIGTEDVLITPFTCDRTGSGDAVVAGIMRKLTTCPEMFEDQDVMERQLRFAVAAGIIAQWTIGAVRGFPTESATQNLKEQVYVPSMW

Biological target: T1, stλP8 (cTP8-2xStrep-HA-TurboID-A10 linker-PAP8) (Arabidopsis thaliana) (UniProt Q9XI19)
T1 sequence: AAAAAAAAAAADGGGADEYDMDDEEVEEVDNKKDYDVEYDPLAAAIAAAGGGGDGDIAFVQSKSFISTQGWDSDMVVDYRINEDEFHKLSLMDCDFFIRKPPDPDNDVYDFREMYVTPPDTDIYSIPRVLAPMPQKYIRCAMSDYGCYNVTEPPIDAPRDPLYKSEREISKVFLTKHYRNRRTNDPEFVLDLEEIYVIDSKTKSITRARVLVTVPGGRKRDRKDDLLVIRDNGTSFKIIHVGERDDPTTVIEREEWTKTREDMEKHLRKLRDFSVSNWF
Assay: affinity purification with mass spectrometry

binding, binds:
B1
B2
B3
B4
B5
B6

Biological target: T2, sP8 (cTP8-2xStrep-PAP8) (Arabidopsis thaliana) (UniProt Q9XI19)
T2 sequence: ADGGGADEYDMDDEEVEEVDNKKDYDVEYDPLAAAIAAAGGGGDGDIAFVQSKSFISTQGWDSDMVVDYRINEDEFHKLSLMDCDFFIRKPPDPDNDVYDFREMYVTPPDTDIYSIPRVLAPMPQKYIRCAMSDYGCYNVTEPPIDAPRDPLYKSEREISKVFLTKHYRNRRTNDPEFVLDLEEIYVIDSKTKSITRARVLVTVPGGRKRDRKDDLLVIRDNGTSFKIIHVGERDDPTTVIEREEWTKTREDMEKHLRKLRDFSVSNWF
Assay: affinity purification with mass spectrometry

binding, binds:
B1
B2
B3
B4
B5
B6

Biological target: stP8 (cTP8-2xStrep-HA-TurboID-PAP8) (Arabidopsis thaliana) (UniProt Q9XI19)
Assay: affinity purification with mass spectrometry

binding, binds:
B1
B2
B3
B4
B5
B6

Biological target: T1, stλP8 (cTP8-2xStrep-HA-TurboID-A10 linker-PAP8) (Arabidopsis thaliana)
Assay: proximity labelling

binding, binds:
B1
B2
B3
B4
B5
B6

Biological target: stP8 (cTP8-2xStrep-HA-TurboID-PAP8) (Arabidopsis thaliana) (UniProt Q9XI19)
Assay: proximity labelling

binding, binds:
B1
B2
B3
B4
B5
B6

These are yes or no findings as the source states them, for the method shown. In cells and extracts the contact can be indirect. These calls come from enrichment with a bait or labelling near it, and not all partners need be listed. For part of these data: Sequences can lack the tags named with a protein.
